# Experimental data: PubChem BioAssay AID2685 (National Center for Advancing Translational Sciences (NCATS), 2010)
# Some of the results follow. These are further read-outs of the screen, such as a control signal, another cell line or another target. No call is given for them. Most of these compounds were active or inconclusive in the main read-out, so they are no random draw. Words in brackets tell the shape of the fitted curve; partial curves, single points and poor fits give uncertain potencies.
# Test: qHTS Assay for Lipid Storage Modulators in Drosophila S3 Cells;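 as to cell number change: cells counted by Cell Tracker Red CMTPX staining in the red channel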
# Details: BODIPY lipid droplet fluorescence, 18-24 h; for cell number change: measured here: cell count max response, cells fed with added oleic acid
# Procedure, shortened: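 Drosophila S3 cells loaded with oleic acid (400 uM, as added) and compounds at several concentrations; lipid droplets imaged by 488-nm laser-scanning cytometry, 500–530 nm intensity and object ratio to cell channel. Percent activity normalized to 20 uM Triacsin C.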
# [1] = measured here: lipid fluorescence (Fed channel) AC50, cells fed with added oleic acid
# [2] = measured here: cell number channel AC50, cells fed with added oleic acid
SMILES,cell number change [%],AC50 [1],AC50 [2]
Fc1cc2nc(-c3ccncc3)[nH]c2cc1F,-7.67,,
O=S(=O)(c1ccc(Cl)cc1)n1cnc2ccccc21,5.28,"29.1 µM [rising, single point]",
CCC(=O)N1N=C(c2ccccc2)CC1c1ccccc1 (stereo unspecified),-3.94,"6.51 µM [falling, single point]",
COc1cc(/C=N/NC(N)=O)ccc1OC(=O)c1cccs1,18.8,,
Cc1noc(C)c1COc1ccc(C(=O)N2CCN(c3ccccn3)CC2)cc1,27.7,,
Cc1ccc(NC(=O)CCn2c(=O)c3cccn3c3ccccc32)cc1C,-31,"29.1 µM [falling, partial curve, poor fit]",
CCn1nc(NC(=O)c2cccnc2)c2cc3ccccc3nc21,,"5.8 µM [rising, partial curve, poor fit]","0.651 µM [rising, full curve, poor fit]"
CCOC(=O)c1c(C)[nH]c(C2=NNC(=NC3CC3)SC2)c1C,,,"6.51 µM [rising, partial curve, poor fit]"
Cc1cccc(OCc2nnc(SCC(=O)Nc3sc(C)c(C)c3C#N)n2C)c1,-3.38,"6.51 µM [rising, single point]",
COc1ccccc1C(=O)Nc1ccc(S(=O)(=O)NC2=NCCCCC2)cc1,31.2,,
O=C(OC1CCOC1=O)c1ccc(N2CCCC2)c([N+](=O)[O-])c1 (stereo unspecified),-34.6,,"32.6 µM [falling, single point]"
O=C(Nc1cc(C(F)(F)F)ccc1N1CCCC1)c1cccnc1,-35,"0.00461 µM [falling, full curve, poor fit]","1.46 µM [falling, full curve, poor fit]"
COc1ccc2c(c1)C(SCC(=O)NCc1ccccc1)CC(C)(C)O2 (stereo unspecified),-20.1,"20.6 µM [falling, partial curve, poor fit]",
COc1cc(C)ccc1OCCOCCOc1ccc([N+](=O)[O-])cc1,,"18.4 µM [rising, partial curve, poor fit]","4.11 µM [rising, partial curve]"
Cc1ccc(NC(=O)c2nc[nH]c2C(=O)NCC(=O)OC(C)(C)C)cc1,0.637,"0.92 µM [rising, partial curve, poor fit]",
NC(=O)c1ccc(NC(=O)COC(=O)CCCN2C(=O)c3cccc4cccc(c34)C2=O)cc1,9.96,"25.9 µM [rising, single point]",
Cc1cccc2sc(N(CCCN(C)C)C(=O)c3ccc(S(=O)(=O)N4CCc5ccccc5C4)cc3)nc12,-47.2,"29.1 µM [falling, single point]","23.1 µM [falling, single point]"
CC1CCc2c(sc(NC(=O)c3ccc(Cn4cc([N+](=O)[O-])cn4)o3)c2C#N)C1 (stereo unspecified),-11.1,"20.6 µM [falling, single point]",
COc1ccc(NC(=O)C(=O)NCCN2CCN(C(=O)c3ccc(C)cc3)CC2)cc1,-15.2,"29.1 µM [rising, single point]",
CN(C)c1ccc(-c2cccc(C3CC=CC4C3C(=O)N(Cc3ccccc3)C4c3ccc(C(F)(F)F)cc3)c2)cc1 (stereo unspecified),30.6,,"13 µM [rising, single point]"

SMILES,cell number change [%],AC50 [1],AC50 [2]
O=C(CSc1ccc(F)cc1)Nc1ccc(N2CCOCC2)cc1,-14.9,"29.1 µM [rising, single point]",
COCCNC(=O)C(c1ccc(C)cc1)N(C(=O)C(=O)NC1CCCC1)c1ccc2c(c1)OCCO2 (stereo unspecified),-3.46,,
Cc1ccccc1-c1nnn(CC(=O)NCc2ccc3c(c2)OCO3)n1,-40.4,,"0.651 µM [falling, full curve, poor fit]"
O=C(CSc1nc2c(c(=O)n1-c1ccc(Cl)cc1)SCC2)NCc1ccco1,2.4,"6.51 µM [falling, partial curve, poor fit]",
CCCCN(C(=O)CCC(=O)Nc1cc(C)on1)C(C(=O)NC(C)(C)C)c1ccccc1Cl (stereo unspecified),4.78,,
COC(=O)c1ccc(N2CCC(C)CC2)c(N)c1,45.2,"2.91 µM [rising, partial curve]","7.31 µM [rising, partial curve, poor fit]"
Cc1cc(Cl)c2oc(C(=O)N(CCO)Cc3ccccc3)c(C)c2c1,-11,"6.51 µM [rising, single point]",
Cc1ccc(C)c(S(=O)(=O)N2C(=S)NC(=O)C2C(C)C)c1 (stereo unspecified),-5.46,,"0.82 µM [falling, full curve, poor fit]"
COc1cc(N)c(Cl)cc1C(=O)OCC(=O)N(C)C1CCCCC1,1.18,"0.259 µM [rising, partial curve, poor fit]",
O=c1cc(N2CCC3(CC2)OCCO3)[nH]c(=O)n1-c1ccc(Cl)cc1,-14.7,,
Cc1cc(C)n(-c2nc3ccccc3nc2N2CCCCCC2)n1,-17.3,,
Cc1ccc(-n2cc(C(=O)c3ccc(F)cc3)nn2)cc1Cl,-83.1,"0.092 µM [rising, full curve, poor fit]",
CC(=O)Nc1ccccc1NC(=O)C/C(C)=N/NC(=O)Cc1cccc2ccccc12,8.02,"29.1 µM [falling, single point]",
CCC(c1nc2ccccc2c(=O)n1-c1nc2ccccc2s1)N1C(=O)c2ccccc2C1=O (stereo unspecified),10.8,"2.06 µM [rising, partial curve, poor fit]",
CC(=O)Nc1ccc(OS(=O)(=O)c2c(C)cc(C)cc2C)cc1,-0.088,"6.51 µM [falling, single point]","4.11 µM [falling, single point]"
COc1ccc(S(=O)(=O)Nc2ccccc2C(=O)Nc2nc(-c3ccc(F)cc3)cs2)cc1OC,-9.74,,
O=C(Cc1ccc(F)cc1)Nc1ccc(F)c([N+](=O)[O-])c1,-21.3,"0.651 µM [rising, full curve]","0.82 µM [rising, full curve]"
CCOc1cccc(OCCOc2ccc(C(=O)c3ccccc3)cc2)c1,9.61,"16.4 µM [rising, partial curve]",
Cc1cc(C)n(C(=O)CNC(=O)Cc2ccccc2)n1,-10.4,"10.3 µM [rising, partial curve, poor fit]",
O=C1CN(CC(=O)N2CCCCC2)c2ccccc2O1,14.4,"0.058 µM [falling, full curve]",

SMILES,cell number change [%],AC50 [1],AC50 [2]
CCOC(=O)c1sc(C)c(C(=O)NC2CCCCC2)c1N,-11.7,"5.8 µM [falling, full curve, poor fit]",
COc1ccc(NC(=O)C2CCCN2C(=O)OC(C)(C)C)cc1 (stereo unspecified),3.21,"0.58 µM [rising, single point]",
CC(=O)N1CCN(c2ccc(NC(=O)c3ccc([N+](=O)[O-])cc3Cl)cc2)CC1,15.9,"29.1 µM [rising, single point]",
CCc1ccc(N(CC(=O)NCCc2ccccc2)C(=O)CCC(=O)Nc2ccccn2)cc1,-4.35,"0.651 µM [rising, partial curve, poor fit]",
COCCn1c(=NC(=O)/C=C/c2ccccc2Cl)sc2cc(NC(C)=O)ccc21,,,"6.51 µM [falling, single point]"
O=C(Nc1ccc2c(c1)OCCO2)c1cc(-c2ccccc2)nc2ccccc12,105,"29.1 µM [rising, partial curve]",
N#Cc1c(Nc2ccccc2Cl)s[nH]c1=O,-48.3,"13 µM [falling, partial curve]","9.2 µM [falling, partial curve, poor fit]"
CCO/C=C/C(O)(CNC(=O)COc1ccccc1F)C(F)(F)F (stereo unspecified),0.14,,
Cc1cc(-c2nc3ncccc3o2)ccc1NC(=S)NC(=O)C(C)C,-43.9,,
O=C(COc1cccc(F)c1)Nc1nc(-c2ccncc2)cs1,13.2,,
O=S(=O)(c1ccc(-c2n[nH]c(=S)o2)cc1)N1CCCCC1,11.5,"0.116 µM [falling, single point]","0.0461 µM [rising, full curve]"
CC1(C(=O)O)CCC(C(=O)Nc2ccc(F)cc2)C1(C)C (stereo unspecified),9.47,,
Cc1ccc(Cl)cc1N1CCN(S(=O)(=O)c2ccc3[nH]c(=O)c(=O)[nH]c3c2)CC1,-55.3,"25.9 µM [falling, partial curve, poor fit]","32.6 µM [falling, partial curve]"
CC(=O)Nc1ccc(OCCOc2ccc([N+](=O)[O-])cc2)cc1,10.6,"1.84 µM [rising, partial curve]",
COc1ccc(S(=O)(=O)N2CCC3(CC2)OCCN3S(=O)(=O)c2cccs2)cc1OC,,,"0.326 µM [rising, full curve, poor fit]"
O=c1cc(-c2ccccc2)nc2cc(-c3ccco3)[nH]n12,-51.4,,"29.1 µM [falling, single point]"
O=C(c1cccc(F)c1)N1CCCc2ccccc21,3.52,"11.6 µM [rising, partial curve]",
COc1ccc(NC(=O)CC2Oc3ccc(C)cc3NC2=O)cc1 (stereo unspecified),29.5,"7.31 µM [rising, full curve, poor fit]",
CC(=O)OCC(=O)[C@@]1(O)CC[C@H]2[C@@H]3CCC4=CC(=O)CC[C@]4(C)[C@H]3[C@@H](O)C[C@@]21C,25.9,"29.1 µM [rising, single point]",
Cc1ccc2[nH]c3c(c2c1)CN(C(=O)CN1CCN(c2ccccc2F)CC1)CC3,,,"0.461 µM [rising, partial curve]"

# Quoted from the results shown for reference:
SMILES,cell number change [%],AC50 [1],AC50 [2]
COc1ccc2c(c1)C(SCC(=O)NCc1ccccc1)CC(C)(C)O2 (stereo unspecified),-20.1,"20.6 µM [falling, partial curve, poor fit]",
COc1cc(C)ccc1OCCOCCOc1ccc([N+](=O)[O-])cc1,,"18.4 µM [rising, partial curve, poor fit]","4.11 µM [rising, partial curve]"
Cc1ccc(NC(=O)c2nc[nH]c2C(=O)NCC(=O)OC(C)(C)C)cc1,0.637,"0.92 µM [rising, partial curve, poor fit]",
NC(=O)c1ccc(NC(=O)COC(=O)CCCN2C(=O)c3cccc4cccc(c34)C2=O)cc1,9.96,"25.9 µM [rising, single point]",
Cc1cccc2sc(N(CCCN(C)C)C(=O)c3ccc(S(=O)(=O)N4CCc5ccccc5C4)cc3)nc12,-47.2,"29.1 µM [falling, single point]","23.1 µM [falling, single point]"
CC1CCc2c(sc(NC(=O)c3ccc(Cn4cc([N+](=O)[O-])cn4)o3)c2C#N)C1 (stereo unspecified),-11.1,"20.6 µM [falling, single point]",
COc1ccc(NC(=O)C(=O)NCCN2CCN(C(=O)c3ccc(C)cc3)CC2)cc1,-15.2,"29.1 µM [rising, single point]",
CN(C)c1ccc(-c2cccc(C3CC=CC4C3C(=O)N(Cc3ccccc3)C4c3ccc(C(F)(F)F)cc3)c2)cc1 (stereo unspecified),30.6,,"13 µM [rising, single point]"
O=C(CSc1ccc(F)cc1)Nc1ccc(N2CCOCC2)cc1,-14.9,"29.1 µM [rising, single point]",
COCCNC(=O)C(c1ccc(C)cc1)N(C(=O)C(=O)NC1CCCC1)c1ccc2c(c1)OCCO2 (stereo unspecified),-3.46,,
Cc1ccccc1-c1nnn(CC(=O)NCc2ccc3c(c2)OCO3)n1,-40.4,,"0.651 µM [falling, full curve, poor fit]"
O=C(CSc1nc2c(c(=O)n1-c1ccc(Cl)cc1)SCC2)NCc1ccco1,2.4,"6.51 µM [falling, partial curve, poor fit]",
CCCCN(C(=O)CCC(=O)Nc1cc(C)on1)C(C(=O)NC(C)(C)C)c1ccccc1Cl (stereo unspecified),4.78,,
COC(=O)c1ccc(N2CCC(C)CC2)c(N)c1,45.2,"2.91 µM [rising, partial curve]","7.31 µM [rising, partial curve, poor fit]"
Cc1cc(Cl)c2oc(C(=O)N(CCO)Cc3ccccc3)c(C)c2c1,-11,"6.51 µM [rising, single point]",
Cc1ccc(C)c(S(=O)(=O)N2C(=S)NC(=O)C2C(C)C)c1 (stereo unspecified),-5.46,,"0.82 µM [falling, full curve, poor fit]"
COc1cc(N)c(Cl)cc1C(=O)OCC(=O)N(C)C1CCCCC1,1.18,"0.259 µM [rising, partial curve, poor fit]",
